This is one part of the list.
Compound: Cc1cc(ccc1-c1ccccc1)C(=O)N1CCCN(CC1)C(=O)CCl [compound 10]
Experiment: probe-labelled cysteine peptide fold change vs DMSO (competition) (log2 fold change); higher = less target engagement (more negative = stronger competition)
Settings: THP-1, incubation time: 4 h
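Note: competitive profiling in live THP-1 cells: cysteine peptides tagged with an iodoacetamide desthiobiotin (IA-DTB) probe, intensity after compound treatment relative to DMSO-treated cells.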

Sequences of proteins named here, by UniProt entry; tags and fusion partners are left off. A change or cut given only in a name is not applied to a line headed by its entry.
UniProt Q9UL45: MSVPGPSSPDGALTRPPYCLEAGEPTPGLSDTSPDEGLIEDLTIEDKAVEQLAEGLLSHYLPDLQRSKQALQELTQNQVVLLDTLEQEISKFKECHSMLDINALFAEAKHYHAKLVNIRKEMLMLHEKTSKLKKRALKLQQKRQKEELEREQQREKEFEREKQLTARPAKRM
UniProt O15265: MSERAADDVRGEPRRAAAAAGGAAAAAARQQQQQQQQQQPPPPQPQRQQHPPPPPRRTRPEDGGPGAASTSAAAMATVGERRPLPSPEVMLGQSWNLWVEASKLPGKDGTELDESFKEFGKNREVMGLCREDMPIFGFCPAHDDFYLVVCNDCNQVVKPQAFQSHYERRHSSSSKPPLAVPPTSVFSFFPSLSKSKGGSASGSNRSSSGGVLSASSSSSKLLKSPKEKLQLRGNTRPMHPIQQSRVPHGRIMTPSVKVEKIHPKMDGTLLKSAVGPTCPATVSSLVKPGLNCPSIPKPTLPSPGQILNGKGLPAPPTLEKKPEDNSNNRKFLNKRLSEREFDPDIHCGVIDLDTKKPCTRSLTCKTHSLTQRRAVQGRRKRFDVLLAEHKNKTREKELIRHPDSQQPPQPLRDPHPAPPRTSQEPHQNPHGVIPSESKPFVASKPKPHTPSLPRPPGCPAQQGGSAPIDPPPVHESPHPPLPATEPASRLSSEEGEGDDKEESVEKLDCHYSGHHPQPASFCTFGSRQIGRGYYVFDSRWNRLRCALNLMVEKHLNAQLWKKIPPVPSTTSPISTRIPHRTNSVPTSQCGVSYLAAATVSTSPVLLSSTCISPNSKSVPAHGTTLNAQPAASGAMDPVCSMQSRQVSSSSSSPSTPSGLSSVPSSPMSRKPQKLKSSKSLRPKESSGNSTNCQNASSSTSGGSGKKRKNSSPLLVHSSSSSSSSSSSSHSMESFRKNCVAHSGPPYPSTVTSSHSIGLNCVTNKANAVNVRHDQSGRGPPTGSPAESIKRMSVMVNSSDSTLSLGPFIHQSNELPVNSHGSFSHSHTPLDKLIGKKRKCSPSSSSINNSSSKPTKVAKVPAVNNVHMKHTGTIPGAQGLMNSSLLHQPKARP
UniProt P53004: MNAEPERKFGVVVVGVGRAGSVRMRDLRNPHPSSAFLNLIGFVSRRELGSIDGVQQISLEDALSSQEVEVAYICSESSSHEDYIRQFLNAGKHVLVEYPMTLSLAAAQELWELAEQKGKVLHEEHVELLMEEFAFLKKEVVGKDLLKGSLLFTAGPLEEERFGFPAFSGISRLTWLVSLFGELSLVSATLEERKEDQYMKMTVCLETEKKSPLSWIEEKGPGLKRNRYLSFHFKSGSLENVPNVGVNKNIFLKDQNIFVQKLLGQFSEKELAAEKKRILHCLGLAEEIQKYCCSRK
UniProt O14867: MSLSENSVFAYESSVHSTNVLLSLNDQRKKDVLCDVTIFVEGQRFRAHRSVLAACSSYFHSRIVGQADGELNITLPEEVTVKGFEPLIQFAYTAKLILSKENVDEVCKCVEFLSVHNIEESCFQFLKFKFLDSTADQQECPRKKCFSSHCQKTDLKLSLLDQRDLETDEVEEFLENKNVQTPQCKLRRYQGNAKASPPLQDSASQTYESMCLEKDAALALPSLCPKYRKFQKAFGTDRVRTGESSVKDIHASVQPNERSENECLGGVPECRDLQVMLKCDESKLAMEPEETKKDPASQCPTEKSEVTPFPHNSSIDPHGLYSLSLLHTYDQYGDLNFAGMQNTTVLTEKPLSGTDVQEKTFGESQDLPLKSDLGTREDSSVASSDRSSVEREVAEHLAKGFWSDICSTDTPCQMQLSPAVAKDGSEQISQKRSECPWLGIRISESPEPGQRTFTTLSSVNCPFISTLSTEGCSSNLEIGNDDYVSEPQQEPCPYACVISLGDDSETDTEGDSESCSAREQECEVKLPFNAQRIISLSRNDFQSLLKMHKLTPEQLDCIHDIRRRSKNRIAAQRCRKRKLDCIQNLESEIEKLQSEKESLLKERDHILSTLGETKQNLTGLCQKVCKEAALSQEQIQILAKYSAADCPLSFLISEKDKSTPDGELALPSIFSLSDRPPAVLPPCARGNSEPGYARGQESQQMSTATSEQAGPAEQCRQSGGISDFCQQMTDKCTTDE
UniProt Q96GS4: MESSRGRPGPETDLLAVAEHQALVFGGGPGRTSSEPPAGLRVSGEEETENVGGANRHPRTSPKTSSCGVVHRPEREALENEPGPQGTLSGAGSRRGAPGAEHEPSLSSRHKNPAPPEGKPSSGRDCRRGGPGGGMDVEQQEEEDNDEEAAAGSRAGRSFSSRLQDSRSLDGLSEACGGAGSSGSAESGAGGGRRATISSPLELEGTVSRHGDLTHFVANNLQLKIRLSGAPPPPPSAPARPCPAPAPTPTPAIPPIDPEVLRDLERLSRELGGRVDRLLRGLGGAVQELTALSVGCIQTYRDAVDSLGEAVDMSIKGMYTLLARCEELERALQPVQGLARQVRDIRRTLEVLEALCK
UniProt Q8NFJ8: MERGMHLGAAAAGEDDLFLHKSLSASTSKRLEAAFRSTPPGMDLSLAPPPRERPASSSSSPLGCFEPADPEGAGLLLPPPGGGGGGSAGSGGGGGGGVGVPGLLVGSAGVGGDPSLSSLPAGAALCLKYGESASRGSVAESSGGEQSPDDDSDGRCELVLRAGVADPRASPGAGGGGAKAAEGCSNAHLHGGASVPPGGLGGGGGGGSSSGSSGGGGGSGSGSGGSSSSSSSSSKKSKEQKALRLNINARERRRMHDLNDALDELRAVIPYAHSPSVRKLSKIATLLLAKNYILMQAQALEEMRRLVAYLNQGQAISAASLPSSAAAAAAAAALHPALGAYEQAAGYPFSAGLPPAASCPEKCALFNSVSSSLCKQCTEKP
UniProt Q6ZT62: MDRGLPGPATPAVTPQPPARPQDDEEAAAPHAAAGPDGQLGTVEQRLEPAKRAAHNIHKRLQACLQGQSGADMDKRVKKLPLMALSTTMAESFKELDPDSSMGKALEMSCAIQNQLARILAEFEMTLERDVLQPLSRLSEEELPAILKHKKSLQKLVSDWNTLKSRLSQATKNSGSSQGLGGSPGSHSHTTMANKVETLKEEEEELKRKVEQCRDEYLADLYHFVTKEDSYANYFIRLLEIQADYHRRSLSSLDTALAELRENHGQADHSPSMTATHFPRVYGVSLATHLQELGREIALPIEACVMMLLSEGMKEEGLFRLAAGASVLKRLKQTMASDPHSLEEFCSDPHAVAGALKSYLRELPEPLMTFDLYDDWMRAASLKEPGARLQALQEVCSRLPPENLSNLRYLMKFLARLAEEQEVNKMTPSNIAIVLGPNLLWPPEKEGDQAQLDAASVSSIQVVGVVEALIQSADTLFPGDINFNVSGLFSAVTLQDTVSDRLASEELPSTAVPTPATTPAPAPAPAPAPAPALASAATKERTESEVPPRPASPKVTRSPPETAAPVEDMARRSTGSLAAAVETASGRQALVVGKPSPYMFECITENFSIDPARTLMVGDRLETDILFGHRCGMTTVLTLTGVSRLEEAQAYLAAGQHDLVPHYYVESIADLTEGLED
UniProt P12694: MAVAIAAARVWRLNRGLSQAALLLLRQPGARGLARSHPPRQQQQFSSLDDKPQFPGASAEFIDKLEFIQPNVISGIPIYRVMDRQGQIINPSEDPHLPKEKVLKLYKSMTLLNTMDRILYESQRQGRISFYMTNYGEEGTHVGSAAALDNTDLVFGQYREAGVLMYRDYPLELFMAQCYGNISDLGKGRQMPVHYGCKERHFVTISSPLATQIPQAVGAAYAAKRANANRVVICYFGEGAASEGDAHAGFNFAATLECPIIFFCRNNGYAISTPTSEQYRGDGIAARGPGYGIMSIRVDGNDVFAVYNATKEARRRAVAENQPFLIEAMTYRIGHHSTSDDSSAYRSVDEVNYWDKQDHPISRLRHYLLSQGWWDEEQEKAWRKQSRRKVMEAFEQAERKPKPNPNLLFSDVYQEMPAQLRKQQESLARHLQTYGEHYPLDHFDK
UniProt O95816: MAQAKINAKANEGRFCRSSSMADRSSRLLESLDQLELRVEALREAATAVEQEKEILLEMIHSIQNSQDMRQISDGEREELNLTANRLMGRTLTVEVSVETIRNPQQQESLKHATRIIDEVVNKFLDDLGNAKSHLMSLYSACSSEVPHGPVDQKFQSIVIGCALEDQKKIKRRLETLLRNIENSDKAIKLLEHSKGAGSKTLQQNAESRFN
UniProt O95861: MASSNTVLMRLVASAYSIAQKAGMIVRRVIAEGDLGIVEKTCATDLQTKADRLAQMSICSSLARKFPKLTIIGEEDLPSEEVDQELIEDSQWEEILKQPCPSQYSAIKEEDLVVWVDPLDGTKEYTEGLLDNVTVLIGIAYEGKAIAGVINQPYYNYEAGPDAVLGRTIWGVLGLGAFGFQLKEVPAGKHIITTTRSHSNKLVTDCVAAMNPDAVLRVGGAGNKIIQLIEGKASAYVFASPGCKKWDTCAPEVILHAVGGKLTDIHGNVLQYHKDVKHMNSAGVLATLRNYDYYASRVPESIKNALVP
UniProt Q9UL15: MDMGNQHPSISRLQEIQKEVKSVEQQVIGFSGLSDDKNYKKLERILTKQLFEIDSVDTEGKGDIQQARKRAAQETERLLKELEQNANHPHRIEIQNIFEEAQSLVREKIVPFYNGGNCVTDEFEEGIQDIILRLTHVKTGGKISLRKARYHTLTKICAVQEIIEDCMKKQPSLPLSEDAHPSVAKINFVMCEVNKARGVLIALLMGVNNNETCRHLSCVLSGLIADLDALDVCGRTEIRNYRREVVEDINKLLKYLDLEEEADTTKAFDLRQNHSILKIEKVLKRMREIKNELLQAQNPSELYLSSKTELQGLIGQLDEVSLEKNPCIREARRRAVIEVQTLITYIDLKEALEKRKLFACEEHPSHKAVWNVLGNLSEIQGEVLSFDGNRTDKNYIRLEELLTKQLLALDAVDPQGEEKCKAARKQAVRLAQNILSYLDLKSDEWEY
UniProt Q9NSY1, whole entry, looked up: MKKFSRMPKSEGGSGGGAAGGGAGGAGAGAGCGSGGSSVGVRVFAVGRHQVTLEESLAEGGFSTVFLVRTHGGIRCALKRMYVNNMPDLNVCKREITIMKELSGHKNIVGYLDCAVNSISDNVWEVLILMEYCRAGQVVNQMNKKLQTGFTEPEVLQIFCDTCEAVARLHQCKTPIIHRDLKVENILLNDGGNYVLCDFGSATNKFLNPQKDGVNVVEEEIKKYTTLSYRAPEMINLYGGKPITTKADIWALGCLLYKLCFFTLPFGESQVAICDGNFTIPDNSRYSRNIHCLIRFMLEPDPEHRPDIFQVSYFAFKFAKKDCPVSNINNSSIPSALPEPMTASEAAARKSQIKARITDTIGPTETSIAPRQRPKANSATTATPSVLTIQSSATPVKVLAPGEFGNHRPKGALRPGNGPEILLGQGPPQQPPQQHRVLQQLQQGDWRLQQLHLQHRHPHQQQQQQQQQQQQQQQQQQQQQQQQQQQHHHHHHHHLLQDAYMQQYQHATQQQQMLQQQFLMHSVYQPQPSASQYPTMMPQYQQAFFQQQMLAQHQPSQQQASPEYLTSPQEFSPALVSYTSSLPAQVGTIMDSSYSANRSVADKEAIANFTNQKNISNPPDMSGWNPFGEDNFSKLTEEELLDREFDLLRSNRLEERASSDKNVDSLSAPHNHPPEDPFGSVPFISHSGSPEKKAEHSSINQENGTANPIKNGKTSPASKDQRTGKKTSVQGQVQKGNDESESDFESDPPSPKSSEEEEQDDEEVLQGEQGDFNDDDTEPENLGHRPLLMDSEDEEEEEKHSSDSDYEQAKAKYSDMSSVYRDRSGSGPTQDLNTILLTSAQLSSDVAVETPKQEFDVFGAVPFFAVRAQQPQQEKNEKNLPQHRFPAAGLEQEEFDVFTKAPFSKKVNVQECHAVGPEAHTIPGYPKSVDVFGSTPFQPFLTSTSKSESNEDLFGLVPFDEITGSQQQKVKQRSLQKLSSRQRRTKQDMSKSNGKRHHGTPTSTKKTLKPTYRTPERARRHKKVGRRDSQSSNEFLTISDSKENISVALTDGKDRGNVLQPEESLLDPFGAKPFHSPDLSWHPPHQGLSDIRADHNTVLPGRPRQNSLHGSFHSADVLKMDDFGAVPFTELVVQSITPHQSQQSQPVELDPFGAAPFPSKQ

Target	probe-labelled cysteine peptide fold change (10 µM)	probe-labelled cysteine peptide fold change (50 µM)
BLOC1S6_Q9UL45_95_ECHSMLDINALFAEAK (UniProt Q9UL45)	0.0555	-0.138
ATXN10_Q9UBB4_65_SSHAVELACRDPSQVENLASSLQLITECFR (UniProt Q9UBB4)	-0.202	-0.0972
ATXN7_O15265_347_EFDPDIHCGVIDLDTK (UniProt O15265)	0.0912	0.239
BLVRA_P53004_281_ILHCLGLAEEIQK (UniProt P53004)	0.0166	-0.0931
BACH1_O14867_557_LTPEQLDCIHDIR (UniProt O14867)	-0.28	-0.134
BORCS6_Q96GS4_356_TLEVLEALCK (UniProt Q96GS4)	0.114	0.189
BHLHE22_Q8NFJ8_156_GSVAESSGGEQSPDDDSDGRCELVLR (UniProt Q8NFJ8)	-0.393	-0.217
BARGIN_Q6ZT62_346_QTMASDPHSLEEFCSDPHAVAGALK (UniProt Q6ZT62)	-0.014	0.0458
BCKDHA_P12694_178_DYPLELFMAQCYGNISDLGK (UniProt P12694)	-0.0388	-0.261
BAG2_O95816_162_FQSIVIGCALEDQKK (UniProt O95816)	0.0439	-0.18
BPNT1_O95861_249_WDTCAPEVILHAVGGK (UniProt O95861)	-0.0743	0.181
BAG5_Q9UL15_191_INFVMCEVNK (UniProt Q9UL15)	-0.0455	-0.226
BMP2K_Q9NSY1_912_KVNVQECHAVGPEAHTIPGYPK (UniProt Q9NSY1)	-0.364	-0.787
BLM_P54132_1364_GGSATCR (UniProt P54132)	-0.0151	-0.142

Part of the list above, bar-delimited:
Target | probe-labelled cysteine peptide fold change (10 µM) | probe-labelled cysteine peptide fold change (50 µM)
BARGIN_Q6ZT62_346_QTMASDPHSLEEFCSDPHAVAGALK (UniProt Q6ZT62) | -0.014 | 0.0458
BAG2_O95816_162_FQSIVIGCALEDQKK (UniProt O95816) | 0.0439 | -0.18
